Experimental findings from paper PMC6063913 are described below.

Chains of the proteins cited; added tags and fusions are not shown.
UniProt P46937: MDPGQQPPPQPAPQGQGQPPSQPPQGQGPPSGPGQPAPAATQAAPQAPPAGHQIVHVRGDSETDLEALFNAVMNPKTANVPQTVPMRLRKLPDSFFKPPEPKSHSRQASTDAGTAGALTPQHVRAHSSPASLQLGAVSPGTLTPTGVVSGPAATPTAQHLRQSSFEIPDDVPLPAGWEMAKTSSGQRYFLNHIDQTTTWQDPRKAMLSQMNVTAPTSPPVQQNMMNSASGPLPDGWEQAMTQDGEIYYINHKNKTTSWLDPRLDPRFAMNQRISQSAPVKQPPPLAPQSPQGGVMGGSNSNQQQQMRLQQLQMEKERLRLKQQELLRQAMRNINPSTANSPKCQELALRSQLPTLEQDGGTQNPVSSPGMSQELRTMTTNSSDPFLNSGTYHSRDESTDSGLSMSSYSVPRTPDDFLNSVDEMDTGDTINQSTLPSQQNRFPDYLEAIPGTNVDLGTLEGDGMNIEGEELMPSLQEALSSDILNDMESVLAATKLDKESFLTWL
UniProt P42858: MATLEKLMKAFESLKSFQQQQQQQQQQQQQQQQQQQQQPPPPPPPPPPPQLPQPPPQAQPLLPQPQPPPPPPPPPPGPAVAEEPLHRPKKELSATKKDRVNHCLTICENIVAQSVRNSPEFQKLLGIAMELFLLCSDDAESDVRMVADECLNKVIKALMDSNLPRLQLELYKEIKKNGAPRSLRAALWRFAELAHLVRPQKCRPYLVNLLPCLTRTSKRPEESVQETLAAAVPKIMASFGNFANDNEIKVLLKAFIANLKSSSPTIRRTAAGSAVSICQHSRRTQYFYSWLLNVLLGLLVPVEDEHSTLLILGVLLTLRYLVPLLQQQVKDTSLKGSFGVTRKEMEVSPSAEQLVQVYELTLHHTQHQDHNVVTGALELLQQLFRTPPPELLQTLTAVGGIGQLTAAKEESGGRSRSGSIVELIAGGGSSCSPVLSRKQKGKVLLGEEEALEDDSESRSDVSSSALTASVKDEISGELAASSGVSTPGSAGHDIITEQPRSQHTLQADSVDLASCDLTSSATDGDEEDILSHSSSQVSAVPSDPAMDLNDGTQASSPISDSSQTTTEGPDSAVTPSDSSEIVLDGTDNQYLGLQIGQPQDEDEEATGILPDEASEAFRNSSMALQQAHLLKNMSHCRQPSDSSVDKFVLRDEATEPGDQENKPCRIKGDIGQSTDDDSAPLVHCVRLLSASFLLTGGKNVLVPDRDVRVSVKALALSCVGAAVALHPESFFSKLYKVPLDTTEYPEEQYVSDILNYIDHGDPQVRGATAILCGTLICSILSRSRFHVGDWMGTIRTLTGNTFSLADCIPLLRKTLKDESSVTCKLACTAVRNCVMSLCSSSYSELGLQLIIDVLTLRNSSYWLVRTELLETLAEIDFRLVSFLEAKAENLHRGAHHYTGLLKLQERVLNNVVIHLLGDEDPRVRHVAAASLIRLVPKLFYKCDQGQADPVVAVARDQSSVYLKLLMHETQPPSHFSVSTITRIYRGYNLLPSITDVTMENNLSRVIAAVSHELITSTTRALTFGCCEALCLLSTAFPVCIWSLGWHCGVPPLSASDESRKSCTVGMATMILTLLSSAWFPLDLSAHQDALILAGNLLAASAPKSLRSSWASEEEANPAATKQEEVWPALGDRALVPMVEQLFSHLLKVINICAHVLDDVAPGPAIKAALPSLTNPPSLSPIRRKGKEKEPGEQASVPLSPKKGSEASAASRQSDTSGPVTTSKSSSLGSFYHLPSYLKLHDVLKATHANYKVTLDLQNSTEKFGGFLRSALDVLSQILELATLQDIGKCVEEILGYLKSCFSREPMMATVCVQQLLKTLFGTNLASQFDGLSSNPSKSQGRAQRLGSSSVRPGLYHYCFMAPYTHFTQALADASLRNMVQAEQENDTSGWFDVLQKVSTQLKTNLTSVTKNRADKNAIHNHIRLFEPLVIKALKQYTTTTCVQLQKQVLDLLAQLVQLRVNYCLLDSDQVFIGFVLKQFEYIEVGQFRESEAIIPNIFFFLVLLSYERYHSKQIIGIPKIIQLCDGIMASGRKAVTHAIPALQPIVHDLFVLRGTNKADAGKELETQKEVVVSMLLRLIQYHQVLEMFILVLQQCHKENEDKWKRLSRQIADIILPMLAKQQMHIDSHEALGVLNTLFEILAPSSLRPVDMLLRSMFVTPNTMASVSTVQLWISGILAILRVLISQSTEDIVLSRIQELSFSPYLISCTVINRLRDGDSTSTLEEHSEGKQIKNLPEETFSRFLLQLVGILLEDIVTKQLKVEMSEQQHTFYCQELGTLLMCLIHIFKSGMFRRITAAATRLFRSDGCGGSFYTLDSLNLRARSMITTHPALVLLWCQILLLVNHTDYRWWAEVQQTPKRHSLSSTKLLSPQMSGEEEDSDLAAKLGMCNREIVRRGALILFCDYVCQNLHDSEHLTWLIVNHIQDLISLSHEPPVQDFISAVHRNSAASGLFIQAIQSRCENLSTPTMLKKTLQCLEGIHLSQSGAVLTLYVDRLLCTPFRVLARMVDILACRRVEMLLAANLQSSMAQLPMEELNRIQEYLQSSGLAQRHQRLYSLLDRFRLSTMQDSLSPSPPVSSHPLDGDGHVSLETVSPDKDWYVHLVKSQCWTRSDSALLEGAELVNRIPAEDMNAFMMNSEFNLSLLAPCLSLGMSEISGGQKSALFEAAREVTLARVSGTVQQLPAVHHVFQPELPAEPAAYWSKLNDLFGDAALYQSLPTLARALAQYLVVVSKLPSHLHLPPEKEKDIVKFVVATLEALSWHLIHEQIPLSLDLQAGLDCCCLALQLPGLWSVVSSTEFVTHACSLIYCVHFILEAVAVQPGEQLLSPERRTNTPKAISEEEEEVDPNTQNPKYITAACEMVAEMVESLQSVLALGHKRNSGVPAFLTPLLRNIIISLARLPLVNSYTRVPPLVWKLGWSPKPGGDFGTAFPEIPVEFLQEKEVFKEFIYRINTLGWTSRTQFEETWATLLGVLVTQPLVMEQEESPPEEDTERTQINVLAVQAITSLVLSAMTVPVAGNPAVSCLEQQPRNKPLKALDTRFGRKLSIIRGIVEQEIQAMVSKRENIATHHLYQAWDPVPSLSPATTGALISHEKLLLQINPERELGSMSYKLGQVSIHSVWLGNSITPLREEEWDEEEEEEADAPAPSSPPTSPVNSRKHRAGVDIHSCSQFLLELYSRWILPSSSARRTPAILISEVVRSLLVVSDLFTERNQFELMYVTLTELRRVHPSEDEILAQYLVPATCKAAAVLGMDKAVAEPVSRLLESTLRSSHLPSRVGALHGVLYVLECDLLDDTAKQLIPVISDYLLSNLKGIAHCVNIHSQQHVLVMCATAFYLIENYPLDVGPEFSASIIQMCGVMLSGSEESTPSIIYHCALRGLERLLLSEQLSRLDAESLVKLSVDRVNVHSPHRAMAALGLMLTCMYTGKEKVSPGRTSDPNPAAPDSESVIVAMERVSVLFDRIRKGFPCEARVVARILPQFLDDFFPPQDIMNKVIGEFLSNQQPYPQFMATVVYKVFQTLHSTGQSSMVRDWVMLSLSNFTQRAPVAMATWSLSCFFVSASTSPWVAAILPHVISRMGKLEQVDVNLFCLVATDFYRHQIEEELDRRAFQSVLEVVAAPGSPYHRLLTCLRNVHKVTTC

Results are given in words; binding and its absence hold for the method and conditions named. Binding seen in cells or lysates may run through a third protein. Some binding calls cover weakened binding; strength is not graded here.

This experiment has as its target Yes-Associated Protein (YAP) (human (endogenous in post-mortem cortex)) (UniProt P46937). In words: co-IP; post-mortem human cortex homogenates (control and HD), 150 ug protein, anti-YAP, anti-14-3-3 or anti-Htt MAB2166 antibody in GAL4 immunoprecipitation buffer, 4 C 3.5 h, magnetic protein A beads overnight at 4 C; immunoblot for pan-TEAD, 14-3-3, huntingtin, pYAP.

For the substance “wild-type huntingtin (Htt) (from UniProt P42858 1-3142)”, the binding result is recorded as “binds”.
